The list shows only some results of the screen, not a fair sample: it covers a few groups of compounds. Other doses and runs of a compound may be missing. T/C: endpoint of the treated group in % of that of the vehicle group. Some entries give survivors of the animals treated and no T/C: the source holds a T/C of zero for them, seemingly a mark for toxic or unscored doses. Some survivor counts are full or nearly so, which does not show that the dose was tolerated: survival well below the control is almost never listed, so the zero probably covers shortened survival too. Survivors were counted at the toxicity check, usually on the fifth day, unless a day is given; later deaths do not show. Schedules are NCI's codes, read here as Q, the interval in days (D) or hours (H), X, the number of doses. Some schedule codes hold Z or #, which are not explained here. Some entries hold several experiments; their values stand side by side, smallest first. Counts like (3×) stand for listed records that agree. Where survival is the endpoint, this PubChem deposit counts one and a half times the control or more as active, and values a quarter to a half above the control carry no call in these data; other NCI protocols may use other cut-offs. Some T/C values carry the count of animals alive at the toxicity check (mostly the fifth day); without a count or a note in brackets, all were alive then.
Test system: L1210 leukemia ip in BDF1 mice, survival T/C
Assay: NCI In Vivo Anticancer Drug Screen. Data for tumor model L1210 Leukemia (intraperitoneal) in B6D2F1 (BDF1) mice
Details: T/C endpoint: mean survival time, higher T/C = longer survival
[1] = dose: 784.0 mg/kg/injection, schedule: Q07DX Z (ip), vehicle: carboxymethylcellulose (CMC)
[2] = dose: 800.0 mg/kg/injection, schedule: Q01DX001 (ip), vehicle: saline
[3] = dose: 1000.0 mg/kg/injection, schedule: Q01DX001 (ip), vehicle: carboxymethylcellulose (CMC)

SMILES: NC(=O)c1[nH]cnc1/N=N\N(CCCl)CCCl
- T/C (dose: 500.0 mg/kg/injection, schedule: Q04DX Z (ip), vehicle: carboxymethylcellulose (CMC)): 104 and 180 % of control
- T/C (dose: 500.0 mg/kg/injection, schedule: Q04DX Z (sc), vehicle: carboxymethylcellulose (CMC)): 295 % of control
- T/C (dose: 500.0 mg/kg/injection, schedule: Q08DX002 (ip), vehicle: carboxymethylcellulose (CMC)): 253 and 521 % of control
- T/C (dose: 500.0 mg/kg/injection, schedule: Q08DX003 (ip), vehicle: carboxymethylcellulose (CMC)): 465 % of control
- T/C (dose: 500.0 mg/kg/injection, schedule: Q08DX Z (ip), vehicle: carboxymethylcellulose (CMC)): 94 and 290 % of control
- T/C (dose: 500.0 mg/kg/injection, schedule: Q## X001 (ip), vehicle: carboxymethylcellulose (CMC)): 441 % of control
- T/C (dose: 504.0 mg/kg/injection, schedule: Q03DX Z (ip), vehicle: carboxymethylcellulose (CMC)): 89 % of control
- T/C (dose: 525.0 mg/kg/injection, schedule: Q01DX001 (ip), vehicle: carboxymethylcellulose (CMC)): 214 and 238 % of control
- T/C (dose: 525.0 mg/kg/injection, schedule: Q07DX Z (ip), vehicle: carboxymethylcellulose (CMC)): 221 % of control [5 of 6 alive]
- T/C (dose: 560.0 mg/kg/injection, schedule: Q01DX001 (ip), vehicle: steroid suspending solution): 112 % of control
- T/C (dose: 567.0 mg/kg/injection, schedule: Q01DX Z (im), vehicle: carboxymethylcellulose (CMC)): 86 % of control
- T/C (dose: 567.0 mg/kg/injection, schedule: Q01DX Z (oral), vehicle: carboxymethylcellulose (CMC)): 112 % of control
- T/C (dose: 567.0 mg/kg/injection, schedule: Q01DX Z (sc), vehicle: carboxymethylcellulose (CMC)): 112 % of control
- survivor count (dose: 600.0 mg/kg/injection, schedule: Q01DX001 (ip), vehicle: clinical formulation): 0 of 6 and 2 of 6
- survivor count (dose: 600.0 mg/kg/injection, schedule: Q01DX001 (ip), vehicle: other): 0 of 8
- T/C (dose: 600.0 mg/kg/injection, schedule: Q01DX001 (ip), vehicle: steroid suspending solution): 116 % of control
- T/C (dose: 600.0 mg/kg/injection, schedule: Q01DX001 (oral), vehicle: carboxymethylcellulose (CMC)): 147 % of control
- T/C (dose: 600.0 mg/kg/injection, schedule: Q04DX005 (oral), vehicle: carboxymethylcellulose (CMC)): 257 % of control
- T/C (dose: 600.0 mg/kg/injection, schedule: Q04DX005 (oral), vehicle: steroid suspending solution): 104 % of control
- T/C (dose: 600.0 mg/kg/injection, schedule: Q06HX012 (oral), vehicle: steroid suspending solution): 112 % of control
- T/C (dose: 600.0 mg/kg/injection, schedule: Q08DX003 (oral), vehicle: carboxymethylcellulose (CMC)): 226 % of control
- T/C (dose: 600.0 mg/kg/injection, schedule: Q08DX003 (oral), vehicle: steroid suspending solution): 133 % of control
- T/C (dose: 625.0 mg/kg/injection, schedule: Q01DX001 (ip), vehicle: carboxymethylcellulose (CMC)): 308 % of control
- T/C (dose: 691.0 mg/kg/injection, schedule: Q01DX001 (ip), vehicle: saline): 180 % of control
- T/C (dose: 691.0 mg/kg/injection, schedule: Q01DX001 (ip), vehicle: steroid suspending solution): 239 % of control
- T/C (dose: 691.0 mg/kg/injection, schedule: Q01DX001 (oral), vehicle: steroid suspending solution): 136 % of control [7 of 8 alive]
- T/C (dose: 750.0 mg/kg/injection, schedule: Q01DX001 (ip), vehicle: carboxymethylcellulose (CMC)): 275 % of control
- T/C (dose: 784.0 mg/kg/injection, schedule: Q01DX001 (ip), vehicle: carboxymethylcellulose (CMC)): 97 [5 of 6 alive], 165, 166, 249 % of control
- T/C [1]: 134 % of control
- survivor count [1]: 4 of 6
- T/C (dose: 800.0 mg/kg/injection, schedule: Q01DX001 (ip), vehicle: carboxymethylcellulose (CMC)): 269 % of control [7 of 8 alive]
- T/C [2]: 207 % of control
- survivor count [2]: 6 of 6
- T/C (dose: 800.0 mg/kg/injection, schedule: Q01DX001 (ip), vehicle: steroid suspending solution, evaluated on day 6): 236 % of control
- T/C (dose: 800.0 mg/kg/injection, schedule: Q01DX001 (ip), vehicle: steroid suspending solution, evaluated on day 60): 94, 104, 236 % of control
- survivor count (dose: 800.0 mg/kg/injection, schedule: Q01DX001 (ip), vehicle: steroid suspending solution): 5 of 8 (2×) and 8 of 8
- survivor count (dose: 800.0 mg/kg/injection, schedule: Q01DX001 (ip), vehicle: water): 2 of 8
- T/C (dose: 800.0 mg/kg/injection, schedule: Q01DX001 (oral), vehicle: carboxymethylcellulose (CMC)): 142 % of control
- T/C (dose: 800.0 mg/kg/injection, schedule: Q04DX003 (oral), vehicle: carboxymethylcellulose (CMC)): 131 % of control
- T/C (dose: 800.0 mg/kg/injection, schedule: Q04DX Z (oral), vehicle: carboxymethylcellulose (CMC)): 108 % of control
- T/C (dose: 800.0 mg/kg/injection, schedule: Q08DX002 (oral), vehicle: carboxymethylcellulose (CMC)): 361 % of control
- survivor count (dose: 800.0 mg/kg/injection, schedule: Q08DX003 (ip), vehicle: carboxymethylcellulose (CMC)): 10 of 10
- T/C (dose: 800.0 mg/kg/injection, schedule: Q08DX Z (oral), vehicle: carboxymethylcellulose (CMC)): 221 % of control
- T/C (dose: 833.0 mg/kg/injection, schedule: Q01DX001 (ip), vehicle: carboxymethylcellulose (CMC)): 95 [7 of 8 alive] and 290 % of control
- survivor count (dose: 833.0 mg/kg/injection, schedule: Q08DX002 (ip), vehicle: carboxymethylcellulose (CMC)): 8 of 8
- T/C (dose: 833.0 mg/kg/injection, schedule: Q08DX003 (ip), vehicle: carboxymethylcellulose (CMC)): 135 % of control
- T/C (dose: 833.0 mg/kg/injection, schedule: Q08DX Z (ip), vehicle: carboxymethylcellulose (CMC)): 95 and 110 % of control
- T/C [3]: 148 and 226 % of control
- survivor count [3]: 1 of 6
- survivor count (dose: 1000.0 mg/kg/injection, schedule: Q07DX Z (ip), vehicle: carboxymethylcellulose (CMC)): 1 of 6
- T/C (dose: 1152.0 mg/kg/injection, schedule: Q01DX001 (ip), vehicle: saline): 254 % of control
- T/C (dose: 1152.0 mg/kg/injection, schedule: Q01DX001 (ip), vehicle: steroid suspending solution): 388 % of control
- survivor count (dose: 1152.0 mg/kg/injection, schedule: Q01DX001 (oral), vehicle: steroid suspending solution): 5 of 8
- T/C (dose: 1200.0 mg/kg/injection, schedule: Q01DX001 (oral), vehicle: carboxymethylcellulose (CMC)): 168 % of control
- T/C (dose: 1200.0 mg/kg/injection, schedule: Q04DX005 (oral), vehicle: steroid suspending solution): 136 % of control
- T/C (dose: 1200.0 mg/kg/injection, schedule: Q08DX003 (oral), vehicle: carboxymethylcellulose (CMC)): 189 % of control
- T/C (dose: 1200.0 mg/kg/injection, schedule: Q08DX003 (oral), vehicle: steroid suspending solution): 94 % of control
- T/C (dose: 1600.0 mg/kg/injection, schedule: Q01DX001 (oral), vehicle: carboxymethylcellulose (CMC)): 238 % of control
- T/C (dose: 1600.0 mg/kg/injection, schedule: Q04DX003 (oral), vehicle: carboxymethylcellulose (CMC)): 108 % of control
- T/C (dose: 1600.0 mg/kg/injection, schedule: Q04DX Z (oral), vehicle: carboxymethylcellulose (CMC)): 100 % of control
- T/C (dose: 1600.0 mg/kg/injection, schedule: Q08DX002 (oral), vehicle: carboxymethylcellulose (CMC)): 258 % of control
- T/C (dose: 1600.0 mg/kg/injection, schedule: Q08DX Z (oral), vehicle: carboxymethylcellulose (CMC)): 127 % of control
